According to the supplement of paper PMC11006884:
Only a part is listed here, and it is no random draw. This is a noisy data set.

The chains behind the UniProt entries cited, without tags or fusion partners. Where a name states a change or a piece, a line headed by the entry shows the natural chain unless it says otherwise.
UniProt Q712K3: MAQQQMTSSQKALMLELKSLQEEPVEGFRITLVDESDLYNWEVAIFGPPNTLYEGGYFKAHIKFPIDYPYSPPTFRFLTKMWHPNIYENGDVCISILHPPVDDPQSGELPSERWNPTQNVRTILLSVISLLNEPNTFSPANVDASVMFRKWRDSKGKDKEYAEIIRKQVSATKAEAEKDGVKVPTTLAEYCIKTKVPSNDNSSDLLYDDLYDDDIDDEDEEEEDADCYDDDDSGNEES
UniProt Q6WCQ1: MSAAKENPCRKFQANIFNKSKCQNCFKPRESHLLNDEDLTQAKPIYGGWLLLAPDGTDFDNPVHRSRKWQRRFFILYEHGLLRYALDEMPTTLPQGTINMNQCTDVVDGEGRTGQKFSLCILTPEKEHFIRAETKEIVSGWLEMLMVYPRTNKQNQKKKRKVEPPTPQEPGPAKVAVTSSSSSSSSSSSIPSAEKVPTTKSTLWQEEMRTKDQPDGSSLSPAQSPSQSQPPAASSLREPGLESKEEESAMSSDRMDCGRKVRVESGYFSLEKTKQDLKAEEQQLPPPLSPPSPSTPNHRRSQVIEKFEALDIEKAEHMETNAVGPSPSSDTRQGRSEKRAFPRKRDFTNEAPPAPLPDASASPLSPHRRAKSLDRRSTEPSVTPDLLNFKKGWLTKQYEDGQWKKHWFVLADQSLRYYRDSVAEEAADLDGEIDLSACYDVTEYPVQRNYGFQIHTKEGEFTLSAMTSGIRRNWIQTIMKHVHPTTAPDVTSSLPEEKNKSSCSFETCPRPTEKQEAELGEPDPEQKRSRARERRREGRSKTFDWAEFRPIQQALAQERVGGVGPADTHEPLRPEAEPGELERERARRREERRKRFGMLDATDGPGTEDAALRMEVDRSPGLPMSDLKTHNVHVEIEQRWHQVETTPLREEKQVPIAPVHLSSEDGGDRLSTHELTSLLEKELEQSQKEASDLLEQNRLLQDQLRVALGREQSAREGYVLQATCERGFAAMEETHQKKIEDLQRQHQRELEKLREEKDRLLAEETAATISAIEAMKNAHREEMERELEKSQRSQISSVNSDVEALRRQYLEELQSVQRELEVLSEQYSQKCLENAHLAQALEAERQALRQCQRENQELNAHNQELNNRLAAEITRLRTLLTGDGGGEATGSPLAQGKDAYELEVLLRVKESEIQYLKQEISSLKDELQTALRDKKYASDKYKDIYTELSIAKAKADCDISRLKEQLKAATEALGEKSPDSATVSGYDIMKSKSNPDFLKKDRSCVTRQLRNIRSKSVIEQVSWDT
UniProt Q6PJG6: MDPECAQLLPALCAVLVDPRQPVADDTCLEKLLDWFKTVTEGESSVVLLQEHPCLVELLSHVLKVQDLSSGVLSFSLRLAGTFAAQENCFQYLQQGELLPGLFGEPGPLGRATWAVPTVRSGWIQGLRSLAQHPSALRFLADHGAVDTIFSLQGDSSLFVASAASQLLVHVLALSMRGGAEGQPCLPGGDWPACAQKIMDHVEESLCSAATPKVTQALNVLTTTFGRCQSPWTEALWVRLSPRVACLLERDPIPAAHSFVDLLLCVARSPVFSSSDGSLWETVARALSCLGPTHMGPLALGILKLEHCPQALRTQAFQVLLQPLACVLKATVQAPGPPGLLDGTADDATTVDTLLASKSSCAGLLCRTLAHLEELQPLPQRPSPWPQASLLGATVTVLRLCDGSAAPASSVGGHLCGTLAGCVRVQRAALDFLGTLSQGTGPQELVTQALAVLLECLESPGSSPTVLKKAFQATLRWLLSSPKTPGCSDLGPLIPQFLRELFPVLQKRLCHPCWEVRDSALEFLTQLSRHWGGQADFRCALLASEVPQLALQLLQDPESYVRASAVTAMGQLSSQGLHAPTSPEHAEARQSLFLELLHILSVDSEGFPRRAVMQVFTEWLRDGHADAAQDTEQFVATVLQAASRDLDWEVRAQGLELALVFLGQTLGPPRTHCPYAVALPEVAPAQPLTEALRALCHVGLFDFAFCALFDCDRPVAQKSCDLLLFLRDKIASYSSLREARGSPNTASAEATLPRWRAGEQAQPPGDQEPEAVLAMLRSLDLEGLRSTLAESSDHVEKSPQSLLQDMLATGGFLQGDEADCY
UniProt Q68CP9, whole entry, looked up: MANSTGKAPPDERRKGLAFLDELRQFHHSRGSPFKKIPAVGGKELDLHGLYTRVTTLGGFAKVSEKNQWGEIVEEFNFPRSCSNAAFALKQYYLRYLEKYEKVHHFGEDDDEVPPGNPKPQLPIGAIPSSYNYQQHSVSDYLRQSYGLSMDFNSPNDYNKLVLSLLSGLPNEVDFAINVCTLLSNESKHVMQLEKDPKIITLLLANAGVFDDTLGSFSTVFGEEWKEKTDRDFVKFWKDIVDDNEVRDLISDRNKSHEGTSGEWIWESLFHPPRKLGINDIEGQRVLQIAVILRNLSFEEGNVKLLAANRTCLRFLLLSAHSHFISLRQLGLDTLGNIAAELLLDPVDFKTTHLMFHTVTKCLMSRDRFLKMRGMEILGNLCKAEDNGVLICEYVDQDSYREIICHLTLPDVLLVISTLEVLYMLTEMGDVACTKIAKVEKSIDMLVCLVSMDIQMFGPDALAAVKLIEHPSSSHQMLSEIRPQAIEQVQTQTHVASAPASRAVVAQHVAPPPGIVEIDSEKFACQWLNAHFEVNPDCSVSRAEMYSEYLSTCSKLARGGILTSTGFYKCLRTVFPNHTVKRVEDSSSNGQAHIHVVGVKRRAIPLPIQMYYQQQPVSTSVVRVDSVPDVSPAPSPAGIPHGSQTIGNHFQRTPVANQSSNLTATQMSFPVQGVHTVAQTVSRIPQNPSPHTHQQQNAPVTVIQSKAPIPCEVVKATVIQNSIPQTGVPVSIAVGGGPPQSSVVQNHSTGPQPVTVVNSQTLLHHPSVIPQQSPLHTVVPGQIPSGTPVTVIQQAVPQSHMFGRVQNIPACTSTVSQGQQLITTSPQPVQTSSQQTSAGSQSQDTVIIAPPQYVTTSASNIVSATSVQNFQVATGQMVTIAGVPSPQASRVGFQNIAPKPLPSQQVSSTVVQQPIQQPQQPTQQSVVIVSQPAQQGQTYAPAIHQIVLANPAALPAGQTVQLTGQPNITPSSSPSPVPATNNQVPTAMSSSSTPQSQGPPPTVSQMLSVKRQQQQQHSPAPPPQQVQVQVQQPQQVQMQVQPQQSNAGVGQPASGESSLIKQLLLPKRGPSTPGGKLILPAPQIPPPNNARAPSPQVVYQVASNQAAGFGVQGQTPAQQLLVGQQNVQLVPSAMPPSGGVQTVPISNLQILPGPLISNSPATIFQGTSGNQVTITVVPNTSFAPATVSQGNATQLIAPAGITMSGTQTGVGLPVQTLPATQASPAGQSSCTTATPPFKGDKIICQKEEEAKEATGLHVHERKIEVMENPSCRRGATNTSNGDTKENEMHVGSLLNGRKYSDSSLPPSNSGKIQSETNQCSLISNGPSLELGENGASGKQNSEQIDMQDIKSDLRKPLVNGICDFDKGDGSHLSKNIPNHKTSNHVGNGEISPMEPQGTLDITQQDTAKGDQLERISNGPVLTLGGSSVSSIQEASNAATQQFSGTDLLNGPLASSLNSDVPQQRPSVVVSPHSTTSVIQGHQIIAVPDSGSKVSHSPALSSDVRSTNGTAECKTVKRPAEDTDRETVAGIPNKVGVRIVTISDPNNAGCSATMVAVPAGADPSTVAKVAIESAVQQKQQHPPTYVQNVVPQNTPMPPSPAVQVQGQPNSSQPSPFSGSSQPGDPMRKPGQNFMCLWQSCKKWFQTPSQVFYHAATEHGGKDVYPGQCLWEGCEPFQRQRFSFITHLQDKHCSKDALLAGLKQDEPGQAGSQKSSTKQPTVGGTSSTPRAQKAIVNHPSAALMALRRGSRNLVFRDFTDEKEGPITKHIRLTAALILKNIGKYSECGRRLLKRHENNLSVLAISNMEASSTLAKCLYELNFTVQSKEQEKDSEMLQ
UniProt Q6P9B9, whole entry, looked up: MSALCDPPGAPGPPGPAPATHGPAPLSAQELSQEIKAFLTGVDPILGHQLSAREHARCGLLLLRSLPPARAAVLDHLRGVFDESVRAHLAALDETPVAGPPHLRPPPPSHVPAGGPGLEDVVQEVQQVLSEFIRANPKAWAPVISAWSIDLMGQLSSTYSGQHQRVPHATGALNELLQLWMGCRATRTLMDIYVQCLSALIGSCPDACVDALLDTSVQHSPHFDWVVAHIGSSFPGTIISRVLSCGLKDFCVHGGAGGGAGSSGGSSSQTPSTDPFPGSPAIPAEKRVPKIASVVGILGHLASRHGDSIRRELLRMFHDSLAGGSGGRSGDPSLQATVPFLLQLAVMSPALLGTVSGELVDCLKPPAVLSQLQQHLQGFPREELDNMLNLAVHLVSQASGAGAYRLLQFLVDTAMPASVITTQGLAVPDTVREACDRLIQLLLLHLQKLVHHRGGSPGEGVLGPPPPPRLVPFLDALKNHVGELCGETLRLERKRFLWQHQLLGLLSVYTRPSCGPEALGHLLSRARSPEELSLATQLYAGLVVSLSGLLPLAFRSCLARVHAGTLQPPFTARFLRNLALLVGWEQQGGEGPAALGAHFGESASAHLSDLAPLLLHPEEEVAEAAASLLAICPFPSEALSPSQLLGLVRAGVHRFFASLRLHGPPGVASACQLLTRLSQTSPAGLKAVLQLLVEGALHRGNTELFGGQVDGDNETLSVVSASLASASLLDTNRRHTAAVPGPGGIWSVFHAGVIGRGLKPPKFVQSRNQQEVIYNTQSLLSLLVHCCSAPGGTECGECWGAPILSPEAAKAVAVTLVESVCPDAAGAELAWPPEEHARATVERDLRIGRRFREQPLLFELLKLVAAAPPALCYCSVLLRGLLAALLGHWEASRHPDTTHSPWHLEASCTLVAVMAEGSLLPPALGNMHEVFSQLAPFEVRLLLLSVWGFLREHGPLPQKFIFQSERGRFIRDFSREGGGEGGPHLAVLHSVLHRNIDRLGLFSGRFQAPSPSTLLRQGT
UniProt Q5VZL5: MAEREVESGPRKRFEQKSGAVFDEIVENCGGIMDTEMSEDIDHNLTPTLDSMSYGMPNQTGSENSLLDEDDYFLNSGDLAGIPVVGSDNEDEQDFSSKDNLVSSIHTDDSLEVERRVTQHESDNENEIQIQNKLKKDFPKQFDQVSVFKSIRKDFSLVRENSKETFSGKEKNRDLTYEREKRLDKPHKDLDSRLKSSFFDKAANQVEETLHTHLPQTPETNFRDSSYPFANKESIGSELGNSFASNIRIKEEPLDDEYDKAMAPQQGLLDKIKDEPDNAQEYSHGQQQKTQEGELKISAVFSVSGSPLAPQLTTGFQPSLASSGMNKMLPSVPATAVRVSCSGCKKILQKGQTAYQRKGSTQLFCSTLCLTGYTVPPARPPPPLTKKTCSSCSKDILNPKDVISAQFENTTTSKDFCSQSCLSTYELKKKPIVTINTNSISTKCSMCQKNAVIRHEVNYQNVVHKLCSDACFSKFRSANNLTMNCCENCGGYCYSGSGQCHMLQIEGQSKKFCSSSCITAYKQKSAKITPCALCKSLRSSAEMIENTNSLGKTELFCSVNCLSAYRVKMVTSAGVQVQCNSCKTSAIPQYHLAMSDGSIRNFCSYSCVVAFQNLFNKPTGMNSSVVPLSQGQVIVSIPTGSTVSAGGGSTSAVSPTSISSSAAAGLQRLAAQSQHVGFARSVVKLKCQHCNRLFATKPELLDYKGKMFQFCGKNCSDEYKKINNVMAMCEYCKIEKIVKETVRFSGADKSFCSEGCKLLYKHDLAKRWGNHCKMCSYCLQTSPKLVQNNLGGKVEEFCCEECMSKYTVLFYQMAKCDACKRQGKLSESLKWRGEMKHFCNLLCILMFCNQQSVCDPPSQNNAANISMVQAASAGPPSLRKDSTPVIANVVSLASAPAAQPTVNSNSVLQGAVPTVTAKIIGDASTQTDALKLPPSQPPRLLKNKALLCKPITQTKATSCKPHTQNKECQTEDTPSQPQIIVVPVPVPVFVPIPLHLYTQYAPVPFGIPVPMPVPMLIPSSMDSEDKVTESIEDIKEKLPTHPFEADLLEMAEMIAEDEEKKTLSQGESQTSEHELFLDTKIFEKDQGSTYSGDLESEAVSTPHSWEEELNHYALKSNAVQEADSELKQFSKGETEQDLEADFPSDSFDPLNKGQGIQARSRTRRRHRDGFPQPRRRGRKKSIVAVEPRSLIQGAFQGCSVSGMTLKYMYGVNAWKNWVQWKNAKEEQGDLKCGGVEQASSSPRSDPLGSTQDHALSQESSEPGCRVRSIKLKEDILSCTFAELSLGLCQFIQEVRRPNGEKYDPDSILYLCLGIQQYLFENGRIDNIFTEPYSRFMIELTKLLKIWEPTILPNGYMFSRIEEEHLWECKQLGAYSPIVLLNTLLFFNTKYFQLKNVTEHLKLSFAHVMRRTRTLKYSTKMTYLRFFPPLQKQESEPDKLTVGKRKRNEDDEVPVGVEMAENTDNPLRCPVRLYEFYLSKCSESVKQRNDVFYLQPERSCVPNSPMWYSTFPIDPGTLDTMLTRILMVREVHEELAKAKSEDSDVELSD
UniProt Q5U5X0: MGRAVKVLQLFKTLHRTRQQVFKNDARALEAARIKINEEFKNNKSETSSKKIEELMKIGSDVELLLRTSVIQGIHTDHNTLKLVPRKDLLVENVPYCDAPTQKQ

compound: COC(=O)/C=C/c1ccccc1 [methyl cinnamate]; assay: log2 ratio of iodoacetamide-alkyne labeling of the cysteine site, DMSO over compound (competition); higher = stronger covalent engagement of the cysteine by the compound, active = 1 or more; conditions: 500 µM; treatment time 1 h; system: HEK293T cell lysate
How it was run: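 For each cysteine, the log2 competition ratio is mean control-channel reporter intensity over mean compound-channel reporter intensity. HEK293T lysate (2 mg/mL) was exposed to vehicle or electrophile (500 µM, 1 h, ambient temperature), labelled with iodoacetamide alkyne (1 h), clicked to sCIP-TMT reagents, digested overnight with trypsin at 37 °C, streptavidin-enriched and analysed by Orbitrap Eclipse LC-MS/MS with FAIMS and FragPipe. Cysteines quantified in only one of three replicates, each with duplicate channels, were excluded.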

log2 ratio of iodoacetamide-alkyne labeling, inactive:
ZC3H13 C1666 (UniProt Q5T200) 0.307
UniProt Q712K3_C191 0.201
AARS2 C300 (UniProt Q5JTZ9) 0.00283
RSBN1L C818 (UniProt Q6PCB5) 0.0999
MIA3 C1513 (UniProt Q5JRA6) 0.636
SNAP47 C369 (UniProt Q5SQN1) 0.214
MPRIP C831 (UniProt Q6WCQ1) -0.0326
INTS3 C498 (UniProt Q68E01) 0.3
BCORL1 C139 (UniProt Q5H9F3) 0.179
MAP1S C342 (UniProt Q66K74) -0.0209
UBR4 C1458 (UniProt Q5T4S7) 0.181
RIF1 C1187 (UniProt Q5UIP0) 0.151
UBR4 C1450 (UniProt Q5T4S7) 0.181
PITRM1 C780 (UniProt Q5JRX3) 0.117
UniProt Q5VWQ0_C671 0.0219
NT5DC1 C63 (UniProt Q5TFE4) 0.279
TJAP1 C196 (UniProt Q5JTD0) -0.0219
ATAD2 C1246 (UniProt Q6PL18) 0.184
UniProt Q5T280_C239 0.0309
AARS2 C609 (UniProt Q5JTZ9) -0.0443
WDR73 C375 (UniProt Q6P4I2) 0.0728
UniProt Q6PJG6_C539 -0.0842
ARID2 C1512 (UniProt Q68CP9) 0.404
INTS5 C514 (UniProt Q6P9B9) -0.227
ZMYM4 C1499 (UniProt Q5VZL5) 0.188
ACBD5 C170 (UniProt Q5T8D3) 0.136
LYRM7 C97 (UniProt Q5U5X0) 0.382
IQSEC1 C906 (UniProt Q6DN90) 0.0691
NIPBL C304 (UniProt Q6KC79) 0.314
CEP170 C30 (UniProt Q5SW79) 0.356
THOC7 C38 (UniProt Q6I9Y2) 0.447
MTHFD1L C961 (UniProt Q6UB35) 0.165
UniProt Q58WW2_C593 0.357
NADSYN1 C428 (UniProt Q6IA69) 0.136
RRP12 C799 (UniProt Q5JTH9) 0.104
C8orf82 C98 (UniProt Q6P1X6) 0.167
UBN2 C966 (UniProt Q6ZU65) 0.295
FKBP15 C1031 (UniProt Q5T1M5) 0.0776

2 successive entries already listed:
log2 ratio of iodoacetamide-alkyne labeling, inactive:
INTS3 C498 (UniProt Q68E01) 0.3
BCORL1 C139 (UniProt Q5H9F3) 0.179
